Results as given in patent US20210145921A1, “COMPOSITION COMPRISING VEGF ANTAGONISTS AND A CATIONIC PEPTIDE AND USES THEREOF” (UCL BUSINESS LTD, priority 2017, published 2021).
Not every detail of the peptide structures is certain; ends, links or a residue may be inferred.

What was measured:
human VEGF165 = target: T1, human VEGF165 (Homo sapiens, UniProt P15692); test: VEGF binding functional ELISA
T1 construct: purchased Peprotech 100-20
T1 sequence (P15692 27-191 isoform P15692-4): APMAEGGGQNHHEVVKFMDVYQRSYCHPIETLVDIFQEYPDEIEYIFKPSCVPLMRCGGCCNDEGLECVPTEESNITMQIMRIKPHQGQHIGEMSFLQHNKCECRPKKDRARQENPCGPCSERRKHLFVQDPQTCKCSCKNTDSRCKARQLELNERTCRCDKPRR

Lucentis [1] = test: Surface Plasmon Resonance, binding of R8 to Lucentis; conditions: Lucentis immobilised on CM5 chip, RU=3700
Lucentis [2] = test: Isothermal titration calorimetry, binding of R8 to Lucentis; conditions: ratios up to 180 R8: Lucentis; 10 mM HisCl, 10% Trehalose, pH 5.5
Lucentis [3] = test: Quartz Crystal Microbalance, binding of R8 to Lucentis; conditions: Lucentis immobilised, 20 and 200 μM R8

SMILES: N=C(N)NCCC[C@H](NC(=O)[C@H](CCCNC(=N)N)NC(=O)[C@H](CCCNC(=N)N)NC(=O)[C@H](CCCNC(=N)N)NC(=O)[C@H](CCCNC(=N)N)NC(=O)[C@H](CCCNC(=N)N)NC(=O)[C@H](CCCNC(=N)N)NC(=O)[C@@H](N)CCCNC(=N)N)C(=O)O [R8, RRRRRRRR]
- effect on Lucentis binding to hVEGF (human VEGF165; molar ratio of 200/1 of R8/Lucentis): no significant impediment
- effect on VEGF binding activity of Avastin (human VEGF165; varying concentrations of R8): did not negatively impact
- binding to Lucentis (Lucentis [1]): Some binding
- binding to Lucentis (Lucentis [2]): No binding
- binding to Lucentis (Lucentis [3]): No binding
